Structures can show the parent of a compound that is named as a salt. ± gives the standard deviation of the averaged measurements. The list shows a part of the results. Repeats in this data set agree poorly, so a single value says little.
What follows are compounds tested on A549 (assay: surface PD-L1 immunofluorescence intensity relative to IFN-gamma-only control (ratio); higher = more PD-L1 expression). Conditions: 10 µM; exposure time 24 h; IFN-gamma 100 ng/mL.
With `CCC1(c2ccccc2)C(=O)NCNC1=O` [Primidone] the “surface PD-L1 immunofluorescence intensity” value was 0.907 ± 0.037. For `C[C@H]1[C@H](C)CC[C@]2(C(=O)O)CC[C@]3(C)C(=CC[C@@H]4[C@@]5(C)CC[C@H](O)C(C)(C)[C@@H]5CC[C@]43C)[C@H]12` [Ursolic acid (Malol)], the “surface PD-L1 immunofluorescence intensity” value was 1.05. For `O=C(c1ccc(F)cc1)C1CCN(CCn2c(=O)[nH]c3ccccc3c2=O)CC1` [Ketanserin tartrate hydrate], the “surface PD-L1 immunofluorescence intensity” value was 0.901. With `Cc1noc(NS(=O)(=O)c2cccc3c(N(C)C)cccc23)c1C` the “surface PD-L1 immunofluorescence intensity” value was 1.02. For `CCN(CC)C(=O)c1ccc(O)c(OC)c1` [Ethamivan], the “surface PD-L1 immunofluorescence intensity” value was 1.06. In the case of `Nc1nccc(Oc2ccc(NC(=O)c3c[nH]cc(-c4ccc(F)cc4)c3=O)cc2F)c1Cl`, the “surface PD-L1 immunofluorescence intensity” value is reported as 1.04. `CN(C)CCOC(c1ccccc1)c1ccccc1.Cn1c(=O)c2[nH]c(Cl)nc2n(C)c1=O` [Dimenhydrinate] was tested, and the “surface PD-L1 immunofluorescence intensity” value was 0.909. `CN(CCCN1c2ccccc2CCc2ccccc21)CC(=O)c1ccc(Cl)cc1` [Lofepramine] was tested, and the “surface PD-L1 immunofluorescence intensity” value was 0.995. In the case of `CCS(=O)(=O)N1CC(CC#N)(n2cc(-c3ncnc4[nH]ccc34)cn2)C1`, the “surface PD-L1 immunofluorescence intensity” value is reported as 0.717. In the case of `CC(=O)OCCN1C(=O)c2c(C)nc3ccc(S(=O)(=O)N4CCOCC4)cc3c2C1=O` [Ivachtin], the “surface PD-L1 immunofluorescence intensity” value is reported as 0.976. For `O=C1NCC2(CCN(CCc3ccccc3)CC2)O1` [Fenspiride hydrochloride], the “surface PD-L1 immunofluorescence intensity” value was 0.951. `Clc1ccc2c(c1)CCc1cccnc1C2=C1CCNCC1` [Desloratadine] was tested, and the “surface PD-L1 immunofluorescence intensity” value was 1.06. In the case of `O=C1NC(=O)c2cc(Nc3ccccc3)c(Nc3ccccc3)cc21`, the “surface PD-L1 immunofluorescence intensity” value is reported as 0.967. `O=C(O)CCc1ccc(NCc2cccc(Oc3ccccc3)c2)cc1` was tested, and the “surface PD-L1 immunofluorescence intensity” value was 0.917. For `CC(=O)O[C@@H]1C[C@H]2C(C)(C)C(=O)C=C[C@]2(C)[C@H]2CC[C@@]3(C)[C@H](c4ccoc4)OC(=O)[C@H]4O[C@]43[C@@]21C` [Gedunin], the “surface PD-L1 immunofluorescence intensity” value was 1.12. With `Cc1cc2nc3c(=O)[nH]c(=O)nc-3n(C[C@H](O)[C@H](O)[C@H](O)CO)c2cc1C` [Riboflavin (Vitamin B2)] the “surface PD-L1 immunofluorescence intensity” value was 1.12. With `CCN(CC)c1ccc(/C=N/NC(=O)c2ccc(O)cc2)cc1` the “surface PD-L1 immunofluorescence intensity” value was 1.03. In the case of `CO[C@H]1/C=C/O[C@@]2(C)Oc3c(C)c(O)c4c(O)c(c5c(nc6cc(C)ccn65)c4c3C2=O)NC(=O)/C(C)=C\C=C\[C@H](C)[C@H](O)[C@@H](C)[C@@H](O)[C@@H](C)[C@H](OC(C)=O)[C@@H]1C` [Rifaximin], the “surface PD-L1 immunofluorescence intensity” value is reported as 0.952. With `CO[C@H]1/C=C/O[C@@]2(C)Oc3c(C)c(O)c4c(O)c(c5c(nc6cc(C)ccn65)c4c3C2=O)NC(=O)/C(C)=C\C=C\[C@H](C)[C@H](O)[C@@H](C)[C@@H](O)[C@@H](C)[C@H](OC(C)=O)[C@@H]1C` [Rifaximin (Xifaxan)] the “surface PD-L1 immunofluorescence intensity” value was 1.03. For `Clc1cccc(Cl)c1NC1=NCCN1` [Clonidine hydrochloride], the “surface PD-L1 immunofluorescence intensity” value was 0.933 ± 0.059. In the case of `C[C@]12C=CC(=O)N[C@@H]1CC[C@@H]1[C@@H]2CC[C@]2(C)[C@@H](C(=O)Nc3cc(C(F)(F)F)ccc3C(F)(F)F)CC[C@@H]12` [Dutasteride], the “surface PD-L1 immunofluorescence intensity” value is reported as 1.04. With `CCCNC(=O)NS(=O)(=O)c1ccc(Cl)cc1` [Chlorpropamide] the “surface PD-L1 immunofluorescence intensity” value was 1.06. For `CC(=O)O[C@]1(C(C)=O)CC[C@H]2[C@@H]3C=C(Cl)C4=CC(=O)CC[C@]4(C)[C@H]3CC[C@@]21C` [Chlormadinone acetate], the “surface PD-L1 immunofluorescence intensity” value was 0.882. `NCCCCCC(=O)O` [Aminocaproic acid] was tested, and the “surface PD-L1 immunofluorescence intensity” value was 1.01. With `CC(C)CCNC(=O)[C@H](CC(C)C)NC(=O)[C@H]1O[C@@H]1C(=O)O` the “surface PD-L1 immunofluorescence intensity” value was 1.09. In the case of `COc1ccc2c(Oc3ccc(NC(=O)c4c(C)n(CC(C)(C)O)n(-c5ccccc5)c4=O)nc3)ccnc2c1`, the “surface PD-L1 immunofluorescence intensity” value is reported as 0.9946 ± 0.009. `CN(C)C(=N)NC(=N)N` [Metformin hydrochloride] was tested, and the “surface PD-L1 immunofluorescence intensity” value was 0.891. With `CC=CC(=O)N(CC)c1ccccc1C` [Crotamiton] the “surface PD-L1 immunofluorescence intensity” value was 1.03. With `Cc1nc2c([nH]1)-c1ccccc1N(C(=O)c1ccc(NC(=O)c3ccccc3-c3ccccc3)cc1)CC2` [Conivaptan HCl (Vaprisol)] the “surface PD-L1 immunofluorescence intensity” value was 1.14. For `CNCCc1ccccn1` [Betahistine mesylate], the “surface PD-L1 immunofluorescence intensity” value was 1.02. `CC1=C(C)C(=O)C(C(CCCCCC(=O)O)c2ccccc2)=C(C)C1=O` (stereo unspecified) [Seratrodast] was tested, and the “surface PD-L1 immunofluorescence intensity” value was 0.912. `CCCCCCCCCCCCCCCC(=O)OC[C@H](O)[C@H]1OC(=O)C(O)=C1O` [Ascorbyl palmitate] was tested, and the “surface PD-L1 immunofluorescence intensity” value was 1.06. With `N#C/C(=C\c1ccc(O)c(O)c1)C(=O)NCCCCc1ccccc1` the “surface PD-L1 immunofluorescence intensity” value was 0.962. In the case of `Nc1nc2c(ncn2COC(CO)CO)c(=O)[nH]1` [Ganciclovir], the “surface PD-L1 immunofluorescence intensity” value is reported as 0.977. For `C[C@H](CCC(=O)O)[C@H]1CC[C@H]2[C@@H]3[C@@H](O)C[C@@H]4C[C@H](O)CC[C@]4(C)[C@H]3CC[C@]12C` [Urosiol], the “surface PD-L1 immunofluorescence intensity” value was 1.06. For `C#C[C@]1(O)CC[C@H]2[C@@H]3CCC4=CCCC[C@@H]4[C@H]3CC[C@@]21C` [Lynestrenol], the “surface PD-L1 immunofluorescence intensity” value was 1.07. For `O=C(Nc1ccncc1)c1cc([N+](=O)[O-])ccc1Cl`, the “surface PD-L1 immunofluorescence intensity” value was 0.988. For `CCCCCCNC(=O)Nc1ccc(S(=O)(=O)Nc2ccc(CCNC[C@H](O)COc3ccc(O)cc3)cc2)cc1`, the “surface PD-L1 immunofluorescence intensity” value was 0.947. For `O=C(CCCN1CCN(c2ccccn2)CC1)c1ccc(F)cc1` [Azaperone], the “surface PD-L1 immunofluorescence intensity” value was 1.02. With `N[C@@H](CS(=O)O)C(=O)O` [L-Cysteinesulfinic acid] the “surface PD-L1 immunofluorescence intensity” value was 1.17. In the case of `CCCCC/C=C/C=C1/C(=O)C=C[C@@H]1C/C=C\CCCC(=O)O` [15-Deoxy-D12,14-prostaglandin J2], the “surface PD-L1 immunofluorescence intensity” value is reported as 1.08. For `NC[C@@H]1O[C@@H](O[C@H]2[C@H](O)[C@@H](O[C@H]3O[C@H](CO)[C@@H](O)[C@H](N)[C@H]3O)[C@H](N)C[C@@H]2N)[C@@H](O)[C@H](O)[C@H]1O` [Kanamycin A sulfate], the “surface PD-L1 immunofluorescence intensity” value was 0.999. For `Nc1nc(-c2ccc(Cl)c(Cl)c2)c(-c2ccncc2)s1` [CGH 2466 dihydrochloride], the “surface PD-L1 immunofluorescence intensity” value was 0.928. In the case of `COCCCN1CCC(NC(=O)c2cc(Cl)c(N)c3c2OCC3)CC1` [Prucalopride], the “surface PD-L1 immunofluorescence intensity” value is reported as 1.03. In the case of `COC(=O)[C@H](NC(=O)c1cc(-c2ccccc2)nc2ccccc12)c1ccccc1`, the “surface PD-L1 immunofluorescence intensity” value is reported as 0.975. In the case of `COC(=O)C1=C(C#N)NC(C)=C(C(=O)OC(C)C)C1c1cccc([N+](=O)[O-])c1` (stereo unspecified) [Nilvadipine], the “surface PD-L1 immunofluorescence intensity” value is reported as 0.951.
